Reference: patent EP2832747A1
These are yes or no findings as the source states them, for the method shown. For part of these data: Binding can be weak; no strength is given.

Legend:
[1] = target: HA-tagged murine GARP (murine); assay: flow cytometry, BW5147 clone expressing HA-tagged mGARP
[2] = target: HA-tagged hGARP Mut I (human); assay: flow cytometry, BW5147 clones expressing HA-tagged forms of hGARP
[3] = target: HA-tagged hGARP Mut II (human); assay: as above

B1: MHGARP8 (antibody, V domains shown)
VH: QVQLKESGPGLVAPSQSLSITCTVSGFSLTGYGINWVRQPPGKGLEWLGMIWSDGSTDYNSVLTSRLRISKDNSNSQVFLKMNSLQVDDTARYYCARDRNYYDYDGAMDYWGQGTSVTVSS
VL: DIQVTQSSSYLSVSLGDRVTITCKASDHIKNWLAWYQQKPGIAPRLLVSGATSLEAGVPSRFSGSGSGKNFTLSITSLQTEDVATYYCQQYWSTPWTFGGGTTLEIR
**Q.** What does the source list for B1?
**A.** binding [1]: no binding; binding [2]: binds; binding [3]: binds
